Results are given in words; binding and its absence hold for the method and conditions named. In cells and extracts the contact can be indirect. Here binding means that the protein was enriched with, or labelled near, the bait; the list need not be complete.

Common to all, as to experiment: affinity purification with mass spectrometry; endogenous CHCHD2 or CHCHD10 immunoprecipitated with antibodies on Dynabeads Protein G from mitochondria of HEK293T cells lysed in 10 mM Tris-HCl pH 7.5, 150 mM NaCl, 1% digitonin; beads analysed by label-free quantitative mass spectrometry
Assay [1] deals with T1, CHCHD10 (human) (human (endogenous in HEK293T)) (UniProt Q8WYQ3).
T1 sequence: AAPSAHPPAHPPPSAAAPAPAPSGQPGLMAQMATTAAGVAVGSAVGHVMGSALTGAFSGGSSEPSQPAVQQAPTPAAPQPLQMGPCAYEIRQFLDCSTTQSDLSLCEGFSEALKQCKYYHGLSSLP

In assay [2] the target is T2, CHCHD2 (human) (human (endogenous in HEK293T)), Q9Y6H1.
T2 chain: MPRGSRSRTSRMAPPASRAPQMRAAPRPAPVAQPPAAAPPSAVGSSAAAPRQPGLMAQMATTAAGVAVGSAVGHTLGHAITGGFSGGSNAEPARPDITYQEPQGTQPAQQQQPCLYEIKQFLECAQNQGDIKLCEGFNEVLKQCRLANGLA
To be noted: remark: other sources report otherwise.

The target in assay [3] is T3, CHCHD2 (human) (human (endogenous in HEK293T)) (UniProt Q9Y6H1).
T3 sequence: T2 chain

Turning to “rhomboid protease PARL (human (endogenous in HEK293T)) (enzyme)”, in assay [1], the binding result was “binds”.

B1: stomatin-like protein 2 (SLP2), Q9UJZ1 29-356 (protein)
chain: SSGLPRNTVVLFVPQQEAWVVERMGRFHRILEPGLNILIPVLDRIRYVQSLKEIVINVPEQSAVTLDNVTLQIDGVLYLRIMDPYKASYGVEDPEYAVTQLAQTTMRSELGKLSLDKVFRERESLNASIVDAINQAADCWGIRCLRYEIKDIHVPPRVKESMQMQVEAERRKRATVLESEGTRESAINVAEGKKQAQILASEAEKAEQINQAAGEASAVLAKAKAKAEAIRILAAALTQHNGDAAASLTVAEQYVSAFSKLAKDSNTILLPSNPGDVTSMVAQAMGVYGALTKAPVPGTPDSLSSGSSRDVQGTDASLDEELDRVKMS
With B1, the binding result in assay [2] is on record as “binds”.

B2: GHITM (TMBIM5 or MICS1) (protein, UniProt Q9H3K2 46-345)
chain: ATKTRIGIRRGRTGQELKEAALEPSMEKIFKIDQMGRWFVAGGAAVGLGALCYYGLGLSNEIGAIEKAVIWPQYVKDRIHSTYMYLAGSIGLTALSAIAISRTPVLMNFMMRGSWVTIGVTFAAMVGAGMLVRSIPYDQSPGPKHLAWLLHSGVMGAVVAPLTILGGPLLIRAAWYTAGIVGGLSTVAMCAPSEKFLNMGAPLGVGLGLVFVSSLGSMFLPPTTVAGATLYSVAMYGGLVLFSMFLLYDTQKVIKRAEVSPMYGVQKYDPINSMLSIYMDTLNIFMRVATMLATGGNRKK
Take B2: the binding result in assay [1] and in assay [3] was “binds” each time.

Source of the values: article PMC12501252.
